Test results taken from the supplement of paper PMC4604168 (melanoma cell lines).
The list shows a part of the results. Many values rest on one well or one pass, so single values are uncertain.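 Imaging used 1,536-well plates; nuclei positive for cleaved PARP by antibody were divided by total DNA-stained nuclei to yield the apoptosis fraction. Doses for screening kept most cells viable, and cell lines differ markedly in resting and induced cleaved-PARP levels.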

Tests used:
Test in all cases: cleaved PARP positive nuclei fraction relative to DMSO control; melanoma cells; higher = more apoptosis
Conditions in all cases: library dose: low library concentration; 72 h
[1] = test system: COLO792
[2] = test system: COLO800
[3] = test system: COLO829
[4] = test system: G361
[5] = test system: IPC-298
[6] = test system: IST-MEL1
[7] = test system: LB2518-MEL
[8] = test system: LOXIMVI
[9] = test system: MEL-HO
[10] = test system: MZ2-MEL
[11] = test system: MeWo
[12] = test system: RPMI7951
[13] = test system: RVH-421
[14] = test system: SkMel28
[15] = test system: SkMel2
[16] = test system: SkMel30
[17] = test system: SkMel5
[18] = test system: UACC257
[19] = test system: UACC62

Row | SMILES | cleaved PARP positive nuclei fraction [1] | cleaved PARP positive nuclei fraction [2] | cleaved PARP positive nuclei fraction [3] | cleaved PARP positive nuclei fraction [4] | cleaved PARP positive nuclei fraction [5] | cleaved PARP positive nuclei fraction [6] | cleaved PARP positive nuclei fraction [7] | cleaved PARP positive nuclei fraction [8] | cleaved PARP positive nuclei fraction [9] | cleaved PARP positive nuclei fraction [10] | cleaved PARP positive nuclei fraction [11] | cleaved PARP positive nuclei fraction [12] | cleaved PARP positive nuclei fraction [13] | cleaved PARP positive nuclei fraction [14] | cleaved PARP positive nuclei fraction [15] | cleaved PARP positive nuclei fraction [16] | cleaved PARP positive nuclei fraction [17] | cleaved PARP positive nuclei fraction [18] | cleaved PARP positive nuclei fraction [19]
1 | N#CC[C@H](C1CCCC1)n1cc(-c2ncnc3[nH]ccc23)cn1 [ruxolitinib] + NC(=O)Nc1cc(-c2cccc(F)c2)sc1C(=O)N[C@H]1CCCNC1 [AZD7762] (first compound 1 µM, partner dose 0.02 µM) | 132% | 86.4% | 72.1% | 120% | 82.9% | 57.7% | 65% | 103% | 68.1% | 104% | 206% | 120% | 63.9% | 94.6% | 121% | 49.3% | 188% | 89.9% | 112%
2 | COc1cc([C@@H]2c3cc4c(cc3[C@@H](O[C@@H]3O[C@@H]5CO[C@@H](C)O[C@H]5[C@H](O)[C@H]3O)[C@H]3COC(=O)[C@H]23)OCO4)cc(OC)c1O [etoposide] + Cc1cc([N+](=O)[O-])ccc1NS(=O)(=O)c1cc(Cl)ccc1Cl [FH535] (first compound 0.02 µM, partner dose 1 µM) | 98.9% | 51.7% | 108% | 105% | 49% | 118% | 74.3% | 97.8% | – | 197% | 103% | 76.7% | 93% | 79.3% | 98.4% | 162% | 82.2% | 63.1% | 164%
3 | N#CC[C@H](C1CCCC1)n1cc(-c2ncnc3[nH]ccc23)cn1 [ruxolitinib] + O=c1cc(-c2cccc3c2Sc2ccccc2S3)oc(N2CCOCC2)c1 [KU55933] (first compound 1 µM, partner dose 1 µM) | 85.8% | 458% | 93.6% | 112% | 43.9% | 104% | 52.1% | 200% | – | 235% | 192% | 63.7% | 101% | 160% | 84.8% | 91.5% | 159% | 72.1% | 66.6%
4 | CCCCCCCCCCCCCCCCCCOP(=O)([O-])OC1CC[N+](C)(C)CC1 [Perifosine] + N#Cc1c(O)c2c(-c3ccc(-c4ccccc4O)cc3)csc2[nH]c1=O [A769662] (first compound 0.4 µM, partner dose 2 µM) | 175% | 127% | 18.8% | 68.9% | 92.2% | 94.1% | 96.9% | 88.9% | – | 122% | 128% | 111% | 52.6% | 178% | 56.8% | 188% | 77.8% | 85.6% | 120%
5 | COc1cc([C@@H]2c3cc4c(cc3[C@@H](O[C@@H]3O[C@@H]5CO[C@@H](C)O[C@H]5[C@H](O)[C@H]3O)[C@H]3COC(=O)[C@H]23)OCO4)cc(OC)c1O [etoposide] + Cn1cncc1[C@@](N)(c1ccc(Cl)cc1)c1ccc2c(c1)c(-c1cccc(Cl)c1)cc(=O)n2C [tipifarnib] (first compound 0.02 µM, partner dose 0.01 µM) | 121% | 63.8% | 68% | 100% | 96% | 153% | 57.5% | 19.4% | 149% | 59.3% | 220% | 126% | 86.4% | 83.6% | – | 76.7% | 46% | 81.6% | 115%
6 | O=C(Nc1cc(C(F)(F)F)cc(C(F)(F)F)c1)c1cc(Cl)ccc1O + OCCn1cc(-c2cnc3nnn(Cc4ccc5ncccc5c4)c3n2)cn1 [PF04217903] (first compound 0.016 µM, partner dose 1 µM) | 57.9% | 74.8% | 21.3% | 98.3% | 113% | 32.9% | 107% | 112% | 70.2% | 29.2% | 92.7% | 47.2% | 119% | 189% | 107% | 57.2% | 73.3% | 104% | 49.7%
7 | O=C(/C=C/c1cccnc1)NCCCCC1CCN(C(=O)c2ccccc2)CC1 + O=C1NC(=O)/C(=C/c2ccc(-c3ccc(F)cc3O)o2)S1 [AS252424] (first compound 0.01 µM, partner dose 1 µM) | 862% | 328% | 424% | 4010% | 468% | 189% | 541% | 53.5% | – | 361% | 47.9% | 32.2% | 51.8% | 42.2% | 490% | 381% | 77.8% | 93.9% | 100%
8 | Cc1ccc(Nc2nccc(N(C)c3ccc4c(C)n(C)nc4c3)n2)cc1S(N)(=O)=O [Pazopanib] + COc1cc(N2CCC(N3CCN(C)CC3)CC2)ccc1Nc1ncc(Cl)c(Nc2ccccc2S(=O)(=O)C(C)C)n1 [NVP-TAE684] (first compound 0.4 µM, partner dose 0.08 µM) | 142% | 185% | 160% | 92.4% | 206% | 119% | 71.3% | 79.5% | – | 44.5% | 94.3% | 103% | 96.5% | 128% | 71% | 62.2% | 79.7% | 113% | 115%

Complete entries as entered above. Values in the order: cleaved PARP positive nuclei fraction [1]	cleaved PARP positive nuclei fraction [2]	cleaved PARP positive nuclei fraction [3]	cleaved PARP positive nuclei fraction [4]	cleaved PARP positive nuclei fraction [5]	cleaved PARP positive nuclei fraction [6]	cleaved PARP positive nuclei fraction [7]	cleaved PARP positive nuclei fraction [8]	cleaved PARP positive nuclei fraction [9]	cleaved PARP positive nuclei fraction [10]	cleaved PARP positive nuclei fraction [11]	cleaved PARP positive nuclei fraction [12]	cleaved PARP positive nuclei fraction [13]	cleaved PARP positive nuclei fraction [14]	cleaved PARP positive nuclei fraction [15]	cleaved PARP positive nuclei fraction [16]	cleaved PARP positive nuclei fraction [17]	cleaved PARP positive nuclei fraction [18]	cleaved PARP positive nuclei fraction [19]
COc1cc([C@@H]2c3cc4c(cc3[C@@H](O[C@@H]3O[C@@H]5CO[C@@H](C)O[C@H]5[C@H](O)[C@H]3O)[C@H]3COC(=O)[C@H]23)OCO4)cc(OC)c1O [etoposide] + Cc1cc([N+](=O)[O-])ccc1NS(=O)(=O)c1cc(Cl)ccc1Cl [FH535] (first compound 0.02 µM, partner dose 1 µM) as listed: 98.9%	51.7%	108%	105%	49%	118%	74.3%	97.8%	–	197%	103%	76.7%	93%	79.3%	98.4%	162%	82.2%	63.1%	164%
CCCCCCCCCCCCCCCCCCOP(=O)([O-])OC1CC[N+](C)(C)CC1 [Perifosine] + N#Cc1c(O)c2c(-c3ccc(-c4ccccc4O)cc3)csc2[nH]c1=O [A769662] (first compound 0.4 µM, partner dose 2 µM) as listed: 175%	127%	18.8%	68.9%	92.2%	94.1%	96.9%	88.9%	–	122%	128%	111%	52.6%	178%	56.8%	188%	77.8%	85.6%	120%
